Measured values reported in article PMC8306578 (International Journal of Molecular Sciences, 2021).

Assay: general procedure: Fmoc solid-phase peptide synthesis; 2-chlorotrityl chloride polystyrene resin; DIC/HOBt
Conditions: conjugation step

Substance: DFO-c(RGDyK)
- conjugation yield: 30%
